Results published in patent US20040048842A1, “Method of treating skin disorders” (priority 2002, published 2004).
Values joined by “and” are separate entries in the source; they are usually repeats but may differ in a detail not shown here. Equal entries are not always repeated. At least one compound was matched to its structure with a doubt left.

Test: Absorption peaks of photosensitizers
Type: physicochemical
Details: relevant absorption peaks, Table 1
Text: FIG. 1 is a graph showing the absorption bands of protoporphyrin IX, which is produced as a result of 5-aminolevulinic acid metabolism in a mammal. Protoporphyrin IX has an absorption band located in the blue spectral region (the 410 nanometer Soret band) and other weaker absorption bands in the 500 to 650 nanometer visible region, namely at about 506 nanometers, 546 nanometers, and 578 nanometers. […] Table 1 lists several photosensitizers useful in the practice of the invention, and identifies relevant absorption peaks for each of the listed photosensitizers. While the 460 nanometer to 620 nanometer wavelength range includes the relatively strong absorption peaks of oxyhemoglobin and deoxyhemoglobin, these blood components have other absorption peaks (although of lower relative maxima) at longer wavelengths. For example, deoxyhemoglobin has a weaker absorption peak at about 757 nanometers, and oxyhemoglobin has a weaker absorption peak at about 920 nanometers. Pulsed light sources in the red and near infrared (up to approximately 940 nanometers), for example, the flash lamp pumped alexandrite laser (755 nanometer), or semiconductor diode lasers, for example, gallium arsenide laser (810 nanometer) are capable of selective photothermolysis of blood vessels, including the microvessels in psoriatic lesions. […]

| Structure (SMILES) | Wavelength of absorption peaks |
| --- | --- |
| Cc1cc(O)c2c(=O)c3c(O)cc(O)c4c5c(O)cc(O)c6c(=O)c7c(O)cc(C)c8c1c2c(c34)c(c78)c65 [hypericin] | 550 nm and 595 nm |
| C=CC1=C(C)c2cc3[nH]c(cc4nc(cc5[nH]c(cc1n2)c(C)c5CCC(=O)O)C(CCC(=O)O)=C4C)c(C)c3C=C [protoporphyrin IX] | 506 nm and 546 nm and 578 nm |
